Source: PubChem BioAssay AID248 (DTP/NCI, 2004)
The list does not hold the whole screen: it gathers tests that were run many times, whatever their T/C, doses with no T/C, and many T/C values between a quarter and a half above the control. Further doses and runs are listed elsewhere. T/C is the treated group as % of the vehicle group. Some doses have a count of surviving animals in place of a T/C: the source files T/C as zero there, which appears to mark a toxic dose or a test without result, not a measured value. Some survivor counts are full or nearly so, which does not show that the dose was tolerated: the source hardly ever lists a survival T/C far under the control, and the zero likely stands for such cases as well. Counts of survivors are from the toxicity check (mostly the fifth day) where no day follows; animals may have died later. Schedules are NCI's codes, taken here to give the interval after Q, in days (D) or hours (H), and the number of doses after X. Some schedules carry Z or #; the key to these is not given. Some molecules as drawn cover several salts, stereoisomers or complexes of the source; a dose is that of the sample tested. Where survival is the endpoint, the PubChem record calls one and a half times the control and up active, and a quarter to a half above the control has no call in these data; cut-offs in other NCI protocols can differ.

System: L1210 leukemia ip in BDF1 mice, survival T/C
Assay: NCI In Vivo Anticancer Drug Screen. Data for tumor model L1210 Leukemia (intraperitoneal) in B6D2F1 (BDF1) mice
Conditions: T/C endpoint: mean survival time, higher T/C = longer survival
[1] = dose: 450.0 mg/kg/injection, schedule: Q01DX Z (ip), vehicle: carboxymethylcellulose (CMC)
[2] = dose: 400.0 mg/kg/injection, schedule: Q04DX002 (ip), vehicle: Klucel (hydroxypropylcellulose) (HPC)
[3] = dose: 40.0 mg/kg/injection, schedule: Q01DX001 (ip), vehicle: saline
[4] = dose: 100.0 mg/kg/injection, schedule: Q01DX001 (ip), vehicle: saline
[5] = dose: 200.0 mg/kg/injection, schedule: Q01DX001 (ip), vehicle: saline
[6] = dose: 400.0 mg/kg/injection, schedule: Q01DX001 (ip), vehicle: saline
[7] = dose: 200.0 mg/kg/injection, schedule: Q04DX003 (ip), vehicle: saline with Tween-80
[8] = dose: 400.0 mg/kg/injection, schedule: Q04DX003 (ip), vehicle: saline with Tween-80
[9] = dose: 100.0 mg/kg/injection, schedule: Q04DX003 (ip), vehicle: saline
[10] = dose: 200.0 mg/kg/injection, schedule: Q04DX003 (ip), vehicle: saline
[11] = dose: 400.0 mg/kg/injection, schedule: Q04DX003 (ip), vehicle: saline

## NC(=NCc1ccccc1)c1ccc(NC(=O)c2ccc(C(=O)Nc3ccc(C(N)=NCc4ccccc4)cc3)cc2)cc1
dose: 14.0 mg/kg/injection, schedule: Q01DX Z (ip), vehicle: water
  survivor count: 4 of 6
dose: 28.0 mg/kg/injection, schedule: Q01DX Z (ip), vehicle: water
  survivor count: 0 of 6
dose: 56.0 mg/kg/injection, schedule: Q01DX Z (ip), vehicle: carboxymethylcellulose (CMC)
  survivor count: 0 of 6
dose: 112.0 mg/kg/injection, schedule: Q01DX Z (ip), vehicle: carboxymethylcellulose (CMC)
  survivor count: 0 of 6
dose: 225.0 mg/kg/injection, schedule: Q01DX Z (ip), vehicle: carboxymethylcellulose (CMC)
  survivor count: 0 of 6
[1]
  survivor count: 0 of 6

## CCOC(=O)c1nnc(SC)nc1SC
dose: 300.0 mg/kg/injection, schedule: Q01DX001 (ip), vehicle: alcohol
  survivor count: 2 of 6

## CC1=C2CCCC(=O)C2(C)CCC1=O (stereo not drawn)
[2]
  survivor count: 2 of 3

## c1ccc([S+]([CH2][Hg][CH2][S+](c2ccccc2)c2ccccc2)c2ccccc2)cc1
[3]
  survivor count: 0 of 6
dose: 80.0 mg/kg/injection, schedule: Q01DX001 (ip), vehicle: saline
  survivor count: 0 of 6
[4]
  survivor count: 0 of 6
[5]
  survivor count: 0 of 6
[6]
  survivor count: 0 of 6

## N#[N+]c1ccccc1-c1nc(N)nc(N)n1
[5]
  survivor count: 0 of 6
[6]
  survivor count: 0 of 6

## CC(C)(C)[Se]C(=N)N
dose: 100.0 mg/kg/injection, schedule: Q01DX001 (ip), vehicle: saline with Tween-80
  survivor count: 0 of 6
dose: 200.0 mg/kg/injection, schedule: Q01DX001 (ip), vehicle: saline with Tween-80
  survivor count: 0 of 6

## CC1CCC(C(C)C)C(OC(=O)c2c([N+](=O)[O-])ccc([N+](=O)[O-])c2Br)C1 (stereo not drawn)
dose: 400.0 mg/kg/injection, schedule: Q01DX009 (ip), vehicle: Klucel (hydroxypropylcellulose) (HPC)
  survivor count: 2 of 6

## Nc1nc(SCCc2ccccc2)c2[nH]cnc2n1
dose: 300.0 mg/kg/injection, schedule: Q01DX Z (ip), vehicle: carboxymethylcellulose (CMC)
  T/C: 130 % of control
[1]
  T/C: 134 % of control
dose: 675.0 mg/kg/injection, schedule: Q01DX Z (ip), vehicle: carboxymethylcellulose (CMC)
  T/C: 125 % of control

## [Br][Hg][Br].c1ccc([PH+](CO[PH+](c2ccccc2)c2ccccc2)c2ccccc2)cc1
dose: 75.0 mg/kg/injection, schedule: Q01DX009 (ip), vehicle: carboxymethylcellulose (CMC)
  survivor count: 6 of 6
dose: 150.0 mg/kg/injection, schedule: Q01DX009 (ip), vehicle: carboxymethylcellulose (CMC)
  survivor count: 0 of 6
dose: 300.0 mg/kg/injection, schedule: Q01DX009 (ip), vehicle: carboxymethylcellulose (CMC)
  survivor count: 0 of 6

## c1ccc2c3c(cc(C4CCCC4)c2c1)CCCC3
dose: 400.0 mg/kg/injection, schedule: Q01DX001 (ip), vehicle: carboxymethylcellulose (CMC)
  survivor count: 6 of 6

## C=C(S(=O)(=O)c1ccccc1)S(=O)(=O)c1ccccc1 (tested in a mixture with another compound)
dose: 100.0 mg/kg/injection, schedule: Q04DX002 (ip), vehicle: Klucel (hydroxypropylcellulose) (HPC)
  survivor count: 0 of 3
[2]
  survivor count: 0 of 3

## Cc1cc2oc(=O)c(Cl)c(Cl)c2c(C)c1Cl
[3]
  survivor count: 0 of 6
dose: 40.0 mg/kg/injection, schedule: Q01DX009 (ip), vehicle: Klucel (hydroxypropylcellulose) (HPC)
  survivor count: 2 of 6
dose: 40.0 mg/kg/injection, schedule: Q04DX003 (ip), vehicle: Klucel (hydroxypropylcellulose) (HPC)
  survivor count: 5 of 6
dose: 75.0 mg/kg/injection, schedule: Q01DX001 (ip), vehicle: saline
  survivor count: 0 of 6
dose: 150.0 mg/kg/injection, schedule: Q01DX001 (ip), vehicle: saline
  survivor count: 0 of 6
dose: 300.0 mg/kg/injection, schedule: Q01DX001 (ip), vehicle: saline
  survivor count: 0 of 6

## CCOC(=O)c1ccc(N(CC(O)CN=[N+]=[N-])S(=O)(=O)c2ccc(C)cc2)cc1 (stereo not drawn)
dose: 100.0 mg/kg/injection, schedule: Q04DX002 (ip), vehicle: saline with Tween-80
  survivor count: 3 of 3
[7]
  survivor count: 6 of 6

## CNc1ncnc2c1ncn2C1CC(CO)C(O)C1O (stereo not drawn)
dose: 200.0 mg/kg/injection, schedule: Q01DX009 (ip), vehicle: saline
  survivor count: 6 of 6

## CCCCC(CC)C1N(C)CCCN1C (stereo not drawn)
[8]
  survivor count: 0 of 6

## CC1(C)N=C(N)N=C(N)N1c1cc(Cl)ccc1Cl
[4]
  survivor count: 2 of 6
dose: 100.0 mg/kg/injection, schedule: Q01DX009 (ip), vehicle: saline
  survivor count: 1 of 6
[9]
  survivor count: 5 of 6
[5]
  survivor count: 0 of 6
[10]
  survivor count: 0 of 6
[6]
  survivor count: 0 of 6
[11]
  survivor count: 0 of 6

## COc1ccc(C(=O)C[N+](=O)[O-])cc1
dose: 400.0 mg/kg/injection, schedule: Q01DX009 (ip), vehicle: saline with Tween-80
  survivor count: 3 of 6

## C/C(=N\Nc1cccc(N)c1)c1ccccc1
dose: 160.0 mg/kg/injection, schedule: Q04DX002 (ip), vehicle: saline with Tween-80
  survivor count: 3 of 3
dose: 400.0 mg/kg/injection, schedule: Q04DX002 (ip), vehicle: saline with Tween-80
  survivor count: 3 of 3

## CCCCCCCCCCCCCCCCS(=O)(=O)c1ccc(S(=O)(=O)F)cc1NC(C)=O
dose: 100.0 mg/kg/injection, schedule: Q01DX009 (ip), vehicle: saline sonified
  survivor count: 6 of 6
dose: 400.0 mg/kg/injection, schedule: Q01DX009 (ip), vehicle: saline sonified
  survivor count: 6 of 6

## O=C(COc1ccc(Cl)cc1Cl)Nc1ccccc1F
dose: 200.0 mg/kg/injection, schedule: Q01DX009 (ip), vehicle: saline with Tween-80
  survivor count: 6 of 6

## [N-]=[N+]=NCc1cnccn1
dose: 50.0 mg/kg/injection, schedule: Q01DX009 (ip), vehicle: saline
  survivor count: 1 of 6
[9]
  survivor count: 4 of 6
[10]
  survivor count: 0 of 6
[11]
  survivor count: 0 of 6

## Nc1ncnc2c1cnn2CCCl
[10]
  T/C: 125 % of control
dose: 300.0 mg/kg/injection, schedule: Q04DX003 (ip), vehicle: saline
  T/C: 128 % of control

## CC(=O)S[C@@H]1CC2=CC(=O)CC[C@]2(C)[C@H]2CC[C@@]3(C)[C@@H](CC[C@@]34CCC(=O)O4)[C@H]12
dose: 200.0 mg/kg/injection, schedule: Q04DX003 (ip), vehicle: Klucel (hydroxypropylcellulose) (HPC)
  survivor count: 6 of 6
dose: 400.0 mg/kg/injection, schedule: Q04DX003 (ip), vehicle: Klucel (hydroxypropylcellulose) (HPC)
  survivor count: 4 of 6

## Cc1c2cccc(Sc3ccc(F)cc3)c2c2c3c(cccc13)[S+](c1ccc(F)cc1)C2 (stereo not drawn)
dose: 100.0 mg/kg/injection, schedule: Q01DX001 (ip), vehicle: Klucel (hydroxypropylcellulose) (HPC)
  survivor count: 1 of 6
dose: 200.0 mg/kg/injection, schedule: Q01DX001 (ip), vehicle: Klucel (hydroxypropylcellulose) (HPC)
  survivor count: 0 of 6
dose: 400.0 mg/kg/injection, schedule: Q01DX001 (ip), vehicle: Klucel (hydroxypropylcellulose) (HPC)
  survivor count: 0 of 6

## C#CC1(N2CCCCC2)CCCCC1
[2]
  survivor count: 1 of 3

## O=C(C[n+]1ccccc1Cc1ccccc1)c1ccccc1
[7]
  survivor count: 1 of 3
[10]
  survivor count: 0 of 6
[8]
  survivor count: 0 of 3
[11]
  survivor count: 0 of 6

## C=CC(c1ccccc1)C(O)(Cc1ccccc1)Cc1ccccc1 (stereo not drawn)
dose: 50.0 mg/kg/injection, schedule: Q01DX009 (ip), vehicle: DMSO
  survivor count: 2 of 3
dose: 100.0 mg/kg/injection, schedule: Q01DX009 (ip), vehicle: DMSO
  survivor count: 1 of 3
dose: 200.0 mg/kg/injection, schedule: Q01DX009 (ip), vehicle: DMSO
  survivor count: 3 of 3

## CCOC(=O)Nc1cc(NCCc2ccccc2)c(N)c(N)n1
[4]
  survivor count: 6 of 6
[5]
  survivor count: 1 of 6
[6]
  survivor count: 0 of 6

## OC(c1ccccc1)(c1ccccc1)c1cccnc1
dose: 300.0 mg/kg/injection, schedule: Q04DX002 (ip), vehicle: saline
  survivor count: 3 of 3
